Our source for the binding values is article PMC12177040.

This experiment has as its target T1, mCherry-USP37^WT (human) (UniProt Q86T82).
T1 sequence: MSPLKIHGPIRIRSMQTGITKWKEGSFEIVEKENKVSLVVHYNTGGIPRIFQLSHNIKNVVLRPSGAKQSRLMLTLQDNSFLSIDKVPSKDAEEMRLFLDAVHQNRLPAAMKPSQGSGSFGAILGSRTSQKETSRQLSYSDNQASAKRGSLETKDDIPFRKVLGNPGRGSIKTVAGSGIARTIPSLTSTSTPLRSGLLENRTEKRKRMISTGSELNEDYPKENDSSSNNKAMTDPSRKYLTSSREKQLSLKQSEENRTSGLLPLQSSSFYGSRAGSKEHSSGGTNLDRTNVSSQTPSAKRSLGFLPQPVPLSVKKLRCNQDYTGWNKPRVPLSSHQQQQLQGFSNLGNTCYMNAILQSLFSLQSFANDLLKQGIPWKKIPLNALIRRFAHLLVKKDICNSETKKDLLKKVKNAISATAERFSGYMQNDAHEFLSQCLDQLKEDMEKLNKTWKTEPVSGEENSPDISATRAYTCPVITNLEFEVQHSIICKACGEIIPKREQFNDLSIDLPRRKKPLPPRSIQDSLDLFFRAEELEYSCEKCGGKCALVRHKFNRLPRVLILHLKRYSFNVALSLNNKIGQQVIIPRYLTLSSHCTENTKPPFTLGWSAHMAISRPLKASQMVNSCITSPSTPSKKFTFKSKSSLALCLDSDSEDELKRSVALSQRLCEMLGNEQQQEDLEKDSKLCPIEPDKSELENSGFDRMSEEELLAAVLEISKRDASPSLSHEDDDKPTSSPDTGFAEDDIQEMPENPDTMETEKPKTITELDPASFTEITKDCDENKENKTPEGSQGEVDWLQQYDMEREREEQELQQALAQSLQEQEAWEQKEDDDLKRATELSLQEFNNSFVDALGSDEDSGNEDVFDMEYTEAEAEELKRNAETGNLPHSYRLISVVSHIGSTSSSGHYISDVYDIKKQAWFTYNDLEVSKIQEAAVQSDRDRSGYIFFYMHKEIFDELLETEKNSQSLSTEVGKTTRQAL
The experiment is described as follows: co-IP; mCherry immunoprecipitation with RFP-trap magnetic beads from lysates of transfected HEK293T cells, then immunoblotting; IP buffer 20 mM Tris-HCl pH 7.5, 150 mM NaCl, 2 mM MgCl2, 10% glycerol, 0.5% NP40, with benzonase; 2 h at 4 °C; n = 3. Background: Immunoblotting shows a protein as a band on a membrane.

These are yes or no findings as the source states them, for the method shown. Binding seen in cells or lysates may run through a third protein. Some results given as binding are weak or reduced against the parent protein; the word gives no strength.

B1: CDC45 (protein, UniProt O75419 1-566)
chain: MFVSDFRKEFYEVVQSQRVLLFVASDVDALCACKILQALFQCDHVQYTLVPVSGWQELETAFLEHKEQFHYFILINCGANVDLLDILQPDEDTIFFVCDTHRPVNVVNVYNDTQIKLLIKQDDDLEVPAYEDIFRDEEEDEEHSGNDSDGSEPSEKRTRLEEEIVEQTMRRRQRREWEARRRDILFDYEQYEYHGTSSAMVMFELAWMLSKDLNDMLWWAIVGLTDQWVQDKITQMKYVTDVGVLQRHVSRHNHRNEDEENTLSVDCTRISFEYDLRLVLYQHWSLHDSLCNTSYTAARFKLWSVHGQKRLQEFLADMGLPLKQVKQKFQAMDISLKENLREMIEESANKFGMKDMRVQTFSIHFGFKHKFLASDVVFATMSLMESPEKDGSGTDHFIQALDSLSRSNLDKLYHGLELAKKQLRATQQTIASCLCTNLVISQGPFLYCSLMEGTPDVMLFSRPASLSLLSKHLLKSFVCSTKNRRCKLLPLVMAAPLSMEHGTVTVVGIPPETDSSDRKNFFGRAFEKAAESTSSRMLHNHFDLSVIELKAEDRSKFLDALISLLS
On to B1, for which the binding result is “binds”.
